# This is one part of the list.
# Chains of the proteins cited; added tags and fusions are not shown.
# UniProt Q0JBA9, entry or part of it: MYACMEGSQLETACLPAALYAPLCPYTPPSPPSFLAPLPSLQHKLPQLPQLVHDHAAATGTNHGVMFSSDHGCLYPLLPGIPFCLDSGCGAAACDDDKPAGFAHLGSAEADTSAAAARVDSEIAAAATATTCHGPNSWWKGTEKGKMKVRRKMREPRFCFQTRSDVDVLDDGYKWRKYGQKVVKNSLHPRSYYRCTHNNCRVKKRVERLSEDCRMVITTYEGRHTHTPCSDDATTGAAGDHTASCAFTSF
# Target: OsWRKY34 (Oryza sativa, UniProt Q0JBA9 1-250)
# Assay: protein-binding microarray (RPBM); PBS, 2% BSA, 51.3 ng/ul salmon testes DNA, 50 uM zinc acetate, 200 nM TF, 25 C, 1 h; high values mean tight binding
# Conditions: protein: recombinant; tags: N-terminal polyhistidine and DsRed monomer fusion (pET32a); label: CyDye5-dUTP incorporated in the synthesized complementary strand; 3' TTTTT single-stranded linker to array surface; dsDNA, one strand shown
# Procedure, shortened: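 Binding signal is defined as the fluorescence intensity of each feature in arbitrary units, read on an Axon 4000B scanner. Transcription factors with N-terminal polyhistidine and DsRed fusions came from E. coli BL21-CodonPlus and were purified on Ni–NTA. They were incubated at 200 nM for 1 h at 25 °C on a custom Agilent array that had been made double-stranded with Cy5-dUTP, with 50 µM zinc acetate present, and the array was washed.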
row,Sequence,binding signal
1,TGTATATGTGCCCTTTTTGGTGGACGACCTGGCTAACTTTCGGAGTCACCTAGTGCAG,8510 fluorescence intensity (a.u.)
2,TCTGTCCGTGCCTCGCTTCCATCGCCATTGCTCTTTTGCTCGGAGTCACCTAGTGCAG,11100 fluorescence intensity (a.u.)
3,ACTATTTGCATTGTTCGTTGCTCTGCATTGCACCTCTCGACGGAGTCACCTAGTGCAG,10900 fluorescence intensity (a.u.)
4,AACTTTCTCCCACCGGCCACCGCGCGTCTCTTGCCACGACCGGAGTCACCTAGTGCAG,12200 fluorescence intensity (a.u.)
5,ACCCCGCCGCTGCCGCCGCCGACCCCACCGCCGACCCCGCCGGAGTCACCTAGTGCAG,11600 fluorescence intensity (a.u.)
6,TTTCGCCCCTCGCGGCCACGTTTTACTTTCCTTTTTTTTTCGGAGTCACCTAGTGCAG,13100 fluorescence intensity (a.u.)
7,TCCGCTCTCTCTCTCTCTCGTCGTCGACCGCCGCCGTCTGCGGAGTCACCTAGTGCAG,12800 fluorescence intensity (a.u.)
8,GTTCGTTCTCCTTTCTTGTTTCGCGTGATCACCGGCGTCTCGGAGTCACCTAGTGCAG,12000 fluorescence intensity (a.u.)
9,GCCCTAGACATGGAAGAGGAGGGGAGAGGGGAAGGGGAGACGGAGTCACCTAGTGCAG,8740 fluorescence intensity (a.u.)
10,CTCAACCCTATCCATTCACTTCCAACCTCATCCACTCATTCGGAGTCACCTAGTGCAG,15000 fluorescence intensity (a.u.)
11,AAGCCGCATATGGAGTTTTTTTTGGTGTTTCAGTTTCAAGCGGAGTCACCTAGTGCAG,8500 fluorescence intensity (a.u.)
12,CACCGCCGCCGCCCAACTCCAATTCTTCCACCGCTTGTGTCGGAGTCACCTAGTGCAG,9590 fluorescence intensity (a.u.)
13,CGATCCTTCCAAACCCTAGCTTAGTCGTTGACTCCTGCGCCGGAGTCACCTAGTGCAG,8990 fluorescence intensity (a.u.)
14,GGGTAAGACATTTAGCAGTCAGTTTCAACCAGTTTTAGCGCGGAGTCACCTAGTGCAG,8990 fluorescence intensity (a.u.)
15,ATAGGGGTGGTCATATTTTGTGGTTGAGGTGAAATTTCCACGGAGTCACCTAGTGCAG,14300 fluorescence intensity (a.u.)
16,CCACCACCCGCTACTGCCATCTGGGACCCACATCCGCGGACGGAGTCACCTAGTGCAG,9020 fluorescence intensity (a.u.)
17,GCGAGGGAGGTATTAGTTGTATTTGATTGTTTGTTTTCTTCGGAGTCACCTAGTGCAG,13700 fluorescence intensity (a.u.)
18,AAACGACGGTACGACGCGTACTATTTTTCTTCTTCCAACCCGGAGTCACCTAGTGCAG,9170 fluorescence intensity (a.u.)
19,AAACAATCCGACGGCCCGTATTCCGTGGTCCACGGCCACGCGGAGTCACCTAGTGCAG,9020 fluorescence intensity (a.u.)
20,TTCCACTAGGAGATAAGCTCTCTATTAATTTGCTACCCTTCGGAGTCACCTAGTGCAG,8440 fluorescence intensity (a.u.)
21,GTCATCATTAATTCATTGCTGTCATTGTTTGCAAGATATTCGGAGTCACCTAGTGCAG,8800 fluorescence intensity (a.u.)

# Single entries from the entries so far:
# Value of TCTGTCCGTGCCTCGCTTCCATCGCCATTGCTCTTTTGCTCGGAGTCACCTAGTGCAG under binding signal: 11100 fluorescence intensity (a.u.)
# Value of GTTCGTTCTCCTTTCTTGTTTCGCGTGATCACCGGCGTCTCGGAGTCACCTAGTGCAG under binding signal: 12000 fluorescence intensity (a.u.)

# Next results

row,Sequence,binding signal
1,TTTTATGATGGTATTTGGTTGGCGAGCTGAATTCCTGTTCCGGAGTCACCTAGTGCAG,8080 fluorescence intensity (a.u.)
2,CGCCGTTGACTTTTTTAAATATGTTTGACCGTTCGTCTTACGGAGTCACCTAGTGCAG,39400 fluorescence intensity (a.u.)
3,CATTCATTCCCCACGCCTCTACCACACGGCCTTTATAATACGGAGTCACCTAGTGCAG,10200 fluorescence intensity (a.u.)
4,ATATCGATCGCCATGTATCTTTTTTTTTTTATGGTTCAGACGGAGTCACCTAGTGCAG,8470 fluorescence intensity (a.u.)
5,GCTTGTTAAATCCTCTGGTGCGTCCTTTTTCTGTTGTCAACGGAGTCACCTAGTGCAG,9950 fluorescence intensity (a.u.)
6,CCACTCCCAATATTATCCACCATCCGTCTCCATCCAACACCGGAGTCACCTAGTGCAG,8670 fluorescence intensity (a.u.)
7,AGAGATGAGCAGCATACTTTGACTTTTAATTTATTCTATGCGGAGTCACCTAGTGCAG,8440 fluorescence intensity (a.u.)
8,ACCTTGTCGAAGCTGGAGCAACTCGTTGACCAAAGGGAGTCGGAGTCACCTAGTGCAG,11200 fluorescence intensity (a.u.)
9,GCCGCTTCTTCCGCGCATGCGTCGTGATCTCACGTCCTCTCGGAGTCACCTAGTGCAG,8870 fluorescence intensity (a.u.)
10,CATCTTGTTGAACCCGATATGTTCTTCAATTTCTTATCTTCGGAGTCACCTAGTGCAG,10800 fluorescence intensity (a.u.)
11,CGCGGCGCCTCCTCCTCCTCTCCCAATTCCGCCGCCAATTCGGAGTCACCTAGTGCAG,8790 fluorescence intensity (a.u.)
12,CGCCATCGATGCGTGACCACCGAGCTCGCCTCGTCCACACCGGAGTCACCTAGTGCAG,8580 fluorescence intensity (a.u.)
13,CCGTGGTGTGACAAAATTGCCCCTGTGACCATTTAGTTGACGGAGTCACCTAGTGCAG,8160 fluorescence intensity (a.u.)
14,ACCCACATGTCATTGACTCATATGGGTCATACATGTCATTCGGAGTCACCTAGTGCAG,10000 fluorescence intensity (a.u.)
15,GTCCGTAAGATCACTCACTGGCCACTTCATCTTCTTGCTCCGGAGTCACCTAGTGCAG,12500 fluorescence intensity (a.u.)
16,TTCATTATTGGATGCCAGCTCTTAGATACCTTGTGGTTTACGGAGTCACCTAGTGCAG,8250 fluorescence intensity (a.u.)
17,ATTCATATGCCTAGATTATAGTGTGTTTAGTAATATCCTTCGGAGTCACCTAGTGCAG,8450 fluorescence intensity (a.u.)
18,CTTACCTATTTACGATTTTTTTCCATGTATTTATGTATTTCGGAGTCACCTAGTGCAG,9360 fluorescence intensity (a.u.)
19,TTATCATATTTTTGCTTCCAGTGTCACGTGACCGCCACATCGGAGTCACCTAGTGCAG,10000 fluorescence intensity (a.u.)
20,ACATCTCATCACTACTTACTTCCTATGCTTTTCACAATCACGGAGTCACCTAGTGCAG,12900 fluorescence intensity (a.u.)
21,CTGGTCCATGATTCCTTTCACCACTTGCCCTTTGTCTTGTCGGAGTCACCTAGTGCAG,8950 fluorescence intensity (a.u.)

# Two records picked at random from the list so far:
row,Sequence,binding signal
9,GCCGCTTCTTCCGCGCATGCGTCGTGATCTCACGTCCTCTCGGAGTCACCTAGTGCAG,8870 fluorescence intensity (a.u.)
17,ATTCATATGCCTAGATTATAGTGTGTTTAGTAATATCCTTCGGAGTCACCTAGTGCAG,8450 fluorescence intensity (a.u.)

# Next results.

row,Sequence,binding signal
1,AAACCGCCAAGAGACCTAGTTTGCACTGATTTTGTAACTTCGGAGTCACCTAGTGCAG,8380 fluorescence intensity (a.u.)
2,CTTTGTGTCTCTCACTGACCGACTCGTGCTGCCCTTTATACGGAGTCACCTAGTGCAG,8240 fluorescence intensity (a.u.)
3,CCACACCCGCTGCCGCCCACCTCGCCGTCTCCGCGCTTGACGGAGTCACCTAGTGCAG,12300 fluorescence intensity (a.u.)
4,TCTCGCCTCCGCCGCTCCCGAATTCCCCACCGCGCCACCGCGGAGTCACCTAGTGCAG,9060 fluorescence intensity (a.u.)
5,TCAAGATCCAATCCGCTCAAATACTTTGGCCTTGCTATCTCGGAGTCACCTAGTGCAG,8160 fluorescence intensity (a.u.)
6,TAAATACCACTCGCCATGCACACTCCAAGCACACACAAAGCGGAGTCACCTAGTGCAG,8400 fluorescence intensity (a.u.)
7,CTCTCTTCAGCTTGCCATATCTCTGTTGTTGACTTGCAAGCGGAGTCACCTAGTGCAG,10800 fluorescence intensity (a.u.)
8,TCGCGCCACCGCCACTGATTCGCCGGAGAGTTGCTGTTCCCGGAGTCACCTAGTGCAG,8360 fluorescence intensity (a.u.)
9,TATGGGGTCTTCCGGCTAGCTCTATAAGGTGGTGGGTTACCGGAGTCACCTAGTGCAG,11700 fluorescence intensity (a.u.)
10,ATCGCCTTGAATCGTCGCCTCTTCATGCCCAGTCCGCCAACGGAGTCACCTAGTGCAG,12700 fluorescence intensity (a.u.)
11,CATCCTTCTCCGCGGCCATTTCTTGGAGCAAATCTCATTTCGGAGTCACCTAGTGCAG,8420 fluorescence intensity (a.u.)
12,TTTGTGGGTGGTTTTGGGCTAAAGATTCCGTTTCTTTCGACGGAGTCACCTAGTGCAG,9250 fluorescence intensity (a.u.)
13,TGGCATCAATCATTATCACATATTTCTTCGGCAGTTAATTCGGAGTCACCTAGTGCAG,8040 fluorescence intensity (a.u.)
14,CTTCGGTTTTGAACAAAATGCCTTCGAATTCAGTTTTTATCGGAGTCACCTAGTGCAG,8980 fluorescence intensity (a.u.)
15,CTGCTCCTATCATGTGGCGTAATAGAATTGTTTACTTATACGGAGTCACCTAGTGCAG,8620 fluorescence intensity (a.u.)
16,CACCCACTATTCATATTTCACTTTTAATCACTTGTTTTAACGGAGTCACCTAGTGCAG,8240 fluorescence intensity (a.u.)
17,ATGGCCGTCTCCATCGCTTCGTTTCACCTCGCTTTCCATGCGGAGTCACCTAGTGCAG,12600 fluorescence intensity (a.u.)
18,AATCCTACGTTTTTCCTATTCCTATGTTTTCTCAGTCATGCGGAGTCACCTAGTGCAG,10100 fluorescence intensity (a.u.)
19,GCCACTGAAAAAGTGTCTTTTTTCCTCTATCTCCCTCTATCGGAGTCACCTAGTGCAG,8510 fluorescence intensity (a.u.)
20,TTTTGAGGTTTTTTCATCGTAGTTTATTTTTCAGCATTTACGGAGTCACCTAGTGCAG,9900 fluorescence intensity (a.u.)
21,TGCATTGCTTTCCCTGCCTCCTCTGCAAGAGCTCCATCATCGGAGTCACCTAGTGCAG,8280 fluorescence intensity (a.u.)

row,Sequence,binding signal
1,GTAATGGTCACTACTGACCAATTCGTTTGCCCGTCACAGGCGGAGTCACCTAGTGCAG,12300 fluorescence intensity (a.u.)
2,CTTATTGTTGTTGGTTCGATTTATGTTGTCTTCTTCCTCTCGGAGTCACCTAGTGCAG,9210 fluorescence intensity (a.u.)
3,CGTGTGTGTGTTGCAGGTTTCACTGCAGTTGCTGGAGTTTCGGAGTCACCTAGTGCAG,9340 fluorescence intensity (a.u.)
4,TCTGTGCATTTACTTTCAATATTATTACACTTTTAGTTGCCGGAGTCACCTAGTGCAG,8460 fluorescence intensity (a.u.)
5,TTACAGCACTATCTAATCTAGTATCTACTCGTCTTGTTATCGGAGTCACCTAGTGCAG,10400 fluorescence intensity (a.u.)
6,GTGAATTTCCACCCTGCTGTTGCTGTTTATGTGAATCGCCCGGAGTCACCTAGTGCAG,8050 fluorescence intensity (a.u.)
7,ATTCTGCCCATGTTTTCTATTCGTACTATAGTGTGTTTTACGGAGTCACCTAGTGCAG,14500 fluorescence intensity (a.u.)
8,TCATGAGGAGTAGATCGCTTGGGTTTTTTATCGTATGGTGCGGAGTCACCTAGTGCAG,8600 fluorescence intensity (a.u.)
9,GCCTAGTTCAATTCACCCGTTTTCTGGCCCAATGGAAATTCGGAGTCACCTAGTGCAG,8500 fluorescence intensity (a.u.)
10,TTCAAGCTCCCAATTTTCCCTTTTAATGTTCCCACTTTTTCGGAGTCACCTAGTGCAG,8660 fluorescence intensity (a.u.)
11,ACTAACTTGCGTTGTGTGGTGGGTATAGATTGGTATAACACGGAGTCACCTAGTGCAG,10400 fluorescence intensity (a.u.)
12,TTTGGGGATTTCTTTCTTATTTTTCTTTCCCTTTTTTTCCCGGAGTCACCTAGTGCAG,10900 fluorescence intensity (a.u.)
13,GGGTATATAAACTTTGGGTCTATAAACTTTAGGTGTATAACGGAGTCACCTAGTGCAG,8650 fluorescence intensity (a.u.)
14,GCTGCTCCCATATGTTTATTCAGAGATGCTCTCTTTGTCCCGGAGTCACCTAGTGCAG,8940 fluorescence intensity (a.u.)
15,TACGGAAATACTACTACTGTCCAATTTCCGACTTCATGAGCGGAGTCACCTAGTGCAG,8800 fluorescence intensity (a.u.)
16,TTCTTTTGTTAGCTTGTATGTCCTAGCACACGTTTATCTTCGGAGTCACCTAGTGCAG,11800 fluorescence intensity (a.u.)
17,TACTCTGATAACTTTCTCTGCGCTGATTTTATTCTAAATCCGGAGTCACCTAGTGCAG,9070 fluorescence intensity (a.u.)
18,TCCTCTCGGGCCCGGCGCCCCATGCCGCGTGCATCCAAAACGGAGTCACCTAGTGCAG,8240 fluorescence intensity (a.u.)
19,CAGCCAAATTCACCATCCTCCAGCGATCGATCGATCACCTCGGAGTCACCTAGTGCAG,8110 fluorescence intensity (a.u.)
20,TATCTCGGTGTCCACCATCATCTCATATATGGCCTTGTTTCGGAGTCACCTAGTGCAG,13500 fluorescence intensity (a.u.)
21,ATGCATTTGTCATTGGTTGGCATGTTTGCCATCTGTTCTGCGGAGTCACCTAGTGCAG,8840 fluorescence intensity (a.u.)
